# Values joined by “and” are separate entries in the source; they are usually repeats but may differ in a detail not shown here. Equal entries are not always repeated. Structures can show the parent of a compound that is named as a salt. ± gives the standard deviation of the averaged measurements. This is one part of the list. Baselines shift from plate to plate; read single values as rough.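 Primary human stellate myofibroblasts activated in culture; inactivation shown by regained lipid droplets. Readout: fraction of Hoechst-counted cells exceeding a per-plate Bodipy threshold, duplicate wells, each plate with DMSO negative and nortriptyline positive controls. Hits: control-normalized score beyond the plate's top-tenth-percentile nortriptyline wells, or among its three best wells. Final well concentrations unstated.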
# System: primary human hepatic stellate cells (donor 1)
# Assay: percent Bodipy-positive cells; higher = more lipid droplet accumulation
# Settings: 48 h
# [1] = library stock concentration: 10 mM
# [2] = library stock concentration: 3.33 mM
# [3] = library stock concentration: 80 uM
# [4] = library stock concentration: 400 uM
# [5] = library stock concentration: 2 mM
# [6] = library stock concentration: 1 mM
compound,measurement,setting,value
COc1cc(C(=O)OCCCN2CCCN(CCCOC(=O)c3cc(OC)c(OC)c(OC)c3)CC2)cc(OC)c1OC.Cl.Cl [Dilazep dihydrochloride],percent Bodipy-positive cells,[1],68.32 ± 0.15%
O=C(c1ccc2c(c1)OCCO2)N1CCCCC1,percent Bodipy-positive cells,[1],51.5 ± 10%
CC1(C)S[C@@H]2[C@H](NC(=O)[C@H](C(=O)O)c3ccsc3)C(=O)N2[C@H]1C(=O)O,percent Bodipy-positive cells,[1],33.9 ± 6.7%
CC1(C)S[C@@H]2[C@H](NC(=O)[C@H](C(=O)O)c3ccsc3)C(=O)N2[C@H]1C(=O)O [Ticarcillin sodium],percent Bodipy-positive cells,,11.8 ± 1.3%
same,percent Bodipy-positive cells,[2],12.6 ± 4.3%
same,percent Bodipy-positive cells,[1],25.8 ± 0.63%
COc1c/c(=C2\C=c3ccccc3=N2)[nH]/c1=C\c1[nH]c(C)cc1C [Obatoclax Mesylate (GX15-070)],percent Bodipy-positive cells,[2],100%
same,percent Bodipy-positive cells,[1],99.41 ± 0.83%
COc1cc(O)c2c(c1)C(=O)c1cc(C)cc(O)c1C2=O [Rheochrysidin],percent Bodipy-positive cells,[2],10.9 ± 0.63%
same,percent Bodipy-positive cells,[1],14.6 ± 0.24%
CC(C)[C@H]1c2ccc(F)cc2CC[C@@]1(CCN(C)CCCc1nc2ccccc2[nH]1)OC(=O)C1CC1 [NNC 55-0396 dihydrochloride],percent Bodipy-positive cells,[1],100%
CC(C)[C@H]1c2ccc(F)cc2CC[C@@]1(CCN(C)CCCc1nc2ccccc2[nH]1)OC(=O)C1CC1,percent Bodipy-positive cells,[1],93.9 ± 8.6%
CCOC(=O)n1ccn(C)c1=S [Carbimazole],percent Bodipy-positive cells,,22.5 ± 4.8%
same,percent Bodipy-positive cells,[2],10.9 ± 0.41%
CC1(O)CCC(C(C)(C)O)CC1 (stereo not given),percent Bodipy-positive cells,[1],27.7 ± 2.5%
COc1cc(N2CCC(N)CC2)ccc1Nc1ncc(Cl)c(-c2c[nH]c3ccccc23)n1,percent Bodipy-positive cells,[2],79.1 ± 2.4%
same,percent Bodipy-positive cells,[1],98.9 ± 1.5%
CN1CCN2c3ccccc3Cc3ccccc3C2C1.Cl (stereo not given) [Mianserin hydrochloride],percent Bodipy-positive cells,[1],88.7 ± 2.9%
CCC(=O)Oc1ccc2c(c1)CC[C@@H]1[C@@H]2CC[C@]2(C)[C@@H](OC(=O)CC)CC[C@@H]12,percent Bodipy-positive cells,[1],32.2 ± 14%
COc1cc2ncnc(N3CCN(C(=O)Nc4ccc(Oc5ccccc5)cc4)CC3)c2cc1OC [PDGF Receptor Tyrosine Kinase Inhibitor III],percent Bodipy-positive cells,[2],16.7 ± 1.6%
COc1cc2ncnc(N3CCN(C(=O)Nc4ccc(Oc5ccccc5)cc4)CC3)c2cc1OC,percent Bodipy-positive cells,[3],10.2 ± 3.8%
same,percent Bodipy-positive cells,[4],7.39 ± 2.2%
same,percent Bodipy-positive cells,[5],9.75 ± 2.6%
same,percent Bodipy-positive cells,[1],10.5 ± 2.4%
CC(C)OC(=O)CCC/C=C\C[C@@H]1[C@@H](/C=C/[C@@H](O)COc2cccc(C(F)(F)F)c2)[C@H](O)C[C@@H]1O,percent Bodipy-positive cells,[1],24.2 ± 8%
"O=C1CN(/N=C/c2ccc(-c3ccc([N+](=O)[O-])cc3)o2)C(=O)N1 [Dantrolene, sodium salt]",percent Bodipy-positive cells,[1],4.12 ± 2.7%
O=C1CN(/N=C/c2ccc(-c3ccc([N+](=O)[O-])cc3)o2)C(=O)N1 [Dantrolene sodium],percent Bodipy-positive cells,library stock concentration: 5.9 mM,27.6 ± 15%
same,percent Bodipy-positive cells,[1],51.9 ± 22%
O=C1CN(/N=C/c2ccc(-c3ccc([N+](=O)[O-])cc3)o2)C(=O)N1 [Dantrolene?Sodium],percent Bodipy-positive cells,[1],34.7 ± 6.5%
O=C1CN(/N=C/c2ccc(-c3ccc([N+](=O)[O-])cc3)o2)C(=O)N1 [Dantrolene sodium salt],percent Bodipy-positive cells,,44.8 ± 5.1%
Nc1[nH]nc2nnc(-c3c(-c4ccccc4)nn4ccccc34)cc12,percent Bodipy-positive cells,[3],8.11 ± 0.56%
same,percent Bodipy-positive cells,[4],7.356 ± 0.054%
same,percent Bodipy-positive cells,[5],10.5 ± 4%
same,percent Bodipy-positive cells,[2],8.77 ± 2.8%
same,percent Bodipy-positive cells,[1],11.5% and 4.78%
CC(C)(F)C[C@H](N[C@@H](c1ccc(-c2ccc(S(C)(=O)=O)cc2)cc1)C(F)(F)F)C(=O)NC1(C#N)CC1 [Odanacatib (MK-0822)],percent Bodipy-positive cells,[2],14 ± 7%
same,percent Bodipy-positive cells,[1],22.6 ± 3.4%
CC(C)OC(=O)CCC/C=C\C[C@@H]1[C@@H](CC[C@@H](O)CCc2ccccc2)[C@H](O)C[C@@H]1O [Latanoprost (free acid)],percent Bodipy-positive cells,[6],15.8 ± 2.1%
Cl.O=C(CCCN1CCC(O)(c2cccc(C(F)(F)F)c2)CC1)c1ccc(F)cc1 [Trifluperidol hydrochloride],percent Bodipy-positive cells,[1],88.2 ± 2.8%
CN(C)CCCN1c2ccccc2CCc2ccc(Cl)cc21.Cl [Clomipramine hydrochloride],percent Bodipy-positive cells,[1],94.18 ± 0.51%
CCCCCCCCCCCCCCC[C@@H](O)[C@@H](N)CO [Dihydrosphingosine],percent Bodipy-positive cells,[6],6.08 ± 2.5%
C[n+]1cccc(C(=O)[O-])c1 [Trigonelline],percent Bodipy-positive cells,,31.9 ± 9.2%
COc1cc(C)c(/C=C/C(C)=C/C=C/C(C)=C/C(=O)O)c(C)c1C [Acitretin],percent Bodipy-positive cells,[2],6.24 ± 1.1%
same,percent Bodipy-positive cells,[1],8.31 ± 3.8%
CNCCC(Oc1ccc(C(F)(F)F)cc1)c1ccccc1.Cl (stereo not given) [Fluoxetine hydrochloride],percent Bodipy-positive cells,,94.2 ± 2.6%
O=c1[nH]c(=O)n([C@H]2C[C@H](O)[C@@H](CO)O2)cc1F [Floxuridine],percent Bodipy-positive cells,[2],11.7 ± 1.8%
same,percent Bodipy-positive cells,library stock concentration: 8.1 mM,8.79% and 24.1%
same,percent Bodipy-positive cells,[1],22.8% and 47.2% and 42.4%
Nc1ccc(C(=O)Oc2ccccc2)c(O)c1 [Phenyl aminosalicylate],percent Bodipy-positive cells,library stock concentration: 8.7 mM,9.07 ± 2.4%
CC(C)CC(NC(=O)OCC1c2ccccc2-c2ccccc21)C(=O)O (stereo not given),percent Bodipy-positive cells,[1],6.38 ± 0.5%
CNNCc1ccc(C(=O)NC(C)C)cc1 [Procarbazine HCl],percent Bodipy-positive cells,library stock concentration: 9 mM,11.4 ± 2.8%
CNNCc1ccc(C(=O)NC(C)C)cc1 [Procarbazine hydrochloride],percent Bodipy-positive cells,,8.41 ± 0.8%
CNNCc1ccc(C(=O)NC(C)C)cc1,percent Bodipy-positive cells,[1],5.93 ± 1.4%
NS(=O)(=O)c1cc2c(cc1Cl)NCNS2(=O)=O,percent Bodipy-positive cells,[1],35.3 ± 1.6%
NS(=O)(=O)c1cc2c(cc1Cl)NCNS2(=O)=O [Hydrochlorothiazide],percent Bodipy-positive cells,,25.3 ± 1.9%
same,percent Bodipy-positive cells,[2],6.1 ± 1.2%
same,percent Bodipy-positive cells,library stock concentration: 6.7 mM,4.42 ± 1.5%
O=C(NC1CCOCC1)c1ccc(-c2cc(-c3c[nH]nc3-c3ccccn3)ccn2)cc1,percent Bodipy-positive cells,[2],7.61 ± 4.8%
same,percent Bodipy-positive cells,[1],8.21 ± 0.54%
O=C1C(=O)N(Cc2ccc(Cl)c(Cl)c2)c2ccccc21 [Apoptosis Activator 2],percent Bodipy-positive cells,[2],9.73 ± 8.4%
same,percent Bodipy-positive cells,[1],25.3% and 13%
COc1cc(/C=C/C(=O)O)ccc1O [Ferulic Acid],percent Bodipy-positive cells,[2],8.19 ± 3.3%
same,percent Bodipy-positive cells,[1],6.89 ± 2.4%
COc1cc(/C=C/C(=O)O)ccc1O [Ferulic acid],percent Bodipy-positive cells,[1],31.2 ± 5.2%
C[N+]1(C)CCC(=C(c2ccccc2)c2ccccc2)CC1 [Diphemanil methylsulfate],percent Bodipy-positive cells,,35 ± 7.2%
C[N+]1(C)CCC(=C(c2ccccc2)c2ccccc2)CC1 [Diphemanil Methylsulfate],percent Bodipy-positive cells,[2],8.5 ± 1.1%
same,percent Bodipy-positive cells,[1],40.4 ± 7.6%
CN(C)CCc1c[nH]c2ccc(C[C@H]3COC(=O)N3)cc12 [Zolmitriptan],percent Bodipy-positive cells,[2],10.1 ± 1%
same,percent Bodipy-positive cells,library stock concentration: 7 mM,10.3 ± 0.49%
CN(C)CCc1c[nH]c2ccc(C[C@H]3COC(=O)N3)cc12 [zolmitriptan],percent Bodipy-positive cells,library stock concentration: 6.6 mM,10.6 ± 0.36%
CN(C)CCC=C1c2ccccc2C=Cc2ccccc21 [Cyclobenzaprine HCl],percent Bodipy-positive cells,[1],71.8 ± 15%
CN(C)CCC=C1c2ccccc2C=Cc2ccccc21 [Cyclobenzaprine hydrochloride],percent Bodipy-positive cells,library stock concentration: 6.4 mM,67.4 ± 1.2%
same,percent Bodipy-positive cells,[1],77.2 ± 4%
O=C1c2cccc(O)c2C(=O)c2c(O)cc(CO)cc21 [Aloe-emodin],percent Bodipy-positive cells,[2],6.16 ± 0.53%
same,percent Bodipy-positive cells,[1],11.3 ± 4.1%
CCC(=O)O[C@H]1[C@H](O[C@@H]2[C@@H](C)[C@H](O[C@H]3C[C@@](C)(OC)[C@@H](O)[C@H](C)O3)[C@@H](C)C(=O)O[C@H](CC)[C@@](C)(O)[C@H](O)[C@@H](C)C(=O)[C@H](C)C[C@@]2(C)O)O[C@H](C)C[C@@H]1N(C)C [Erythromycin estolate],percent Bodipy-positive cells,library stock concentration: 1.9 mM,22.2 ± 2.6%
same,percent Bodipy-positive cells,[1],35.9 ± 2.4%
"O=P(O)(O)OC1[C@H](OP(=O)(O)O)[C@H](O)C(O)[C@H](O)[C@H]1OP(=O)(O)O (stereo partly drawn) [D-myo-Inositol-1,2,6-triphosphate (sodium salt)]",percent Bodipy-positive cells,[6],7.88 ± 0.85%
O=S(=O)(c1ccccc1)c1cnc2c(N3CCNCC3)cccc2c1,percent Bodipy-positive cells,[1],73.5 ± 2.6%
COc1cc(C(C)=O)ccc1OCCCN1CCC(c2noc3cc(F)ccc23)CC1,percent Bodipy-positive cells,[1],90 ± 1.1%
CCCC(=O)Oc1ccc2[nH]c(C(=O)c3cc4ccccc4[nH]3)cc2c1 [PDGF Receptor Tyrosine Kinase Inhibitor II],percent Bodipy-positive cells,[2],7.72 ± 1.4%
Nc1ncnc2c1ncn2[C@@H]1O[C@H](COP(=O)(O)O)[C@@H](O)[C@H]1O [Adenosine phosphate],percent Bodipy-positive cells,library stock concentration: 5.8 mM,10.7 ± 0.19%
same,percent Bodipy-positive cells,[1],13.6 ± 6.5%
NC(=O)c1ncn([C@@H]2O[C@H](CO)[C@@H](O)[C@H]2O)c1N [Acadesine],percent Bodipy-positive cells,[2],18.2 ± 4.8%
same,percent Bodipy-positive cells,[1],13.9 ± 7.9%
NC(=O)c1ncn([C@@H]2O[C@H](CO)[C@@H](O)[C@H]2O)c1N,percent Bodipy-positive cells,[1],32.6 ± 1.6%
O=C(CCSCc1ccco1)NNC(=O)N1Cc2ccccc2Oc2ccc(Cl)cc21,percent Bodipy-positive cells,[1],16.4 ± 0.21%
CC1=C(/C=C/C(C)=C/C=C/C(C)=C/C(=O)Nc2ccc(O)cc2)C(C)(C)CCC1 [Fenretinide],percent Bodipy-positive cells,library stock concentration: 5.1 mM,5.79 ± 1.4%
same,percent Bodipy-positive cells,[1],4.23 ± 1.6%
CC1=C(/C=C/C(C)=C/C=C/C(C)=C/C(=O)Nc2ccc(O)cc2)C(C)(C)CCC1 [Retinoic acid p-hydroxyanilide],percent Bodipy-positive cells,[1],70.7 ± 7%
O=C(O)CCC/C=C\C[C@@H]1[C@@H](/C=C/[C@H](O)CCc2ccccc2)[C@H](O)C[C@@H]1O [15(R)-17-phenyl trinor Prostaglandin F2.alpha.],percent Bodipy-positive cells,[6],18.2 ± 3.5%
Nc1ccc(-c2cccc3c(=O)cc(N4CCOCC4)oc23)cc1,percent Bodipy-positive cells,[1],10.7 ± 6%
CC(c1cc2ccccc2s1)N(O)C(N)=O (stereo not given) [Zileuton],percent Bodipy-positive cells,[2],11.4 ± 3.2%
same,percent Bodipy-positive cells,[1],14.8 ± 3.9%
CC(c1cc2ccccc2s1)N(O)C(N)=O (stereo not given),percent Bodipy-positive cells,[1],3.73 ± 2.9%
Cc1ccc(C(=O)Nc2ccc(CN3CCN(C)CC3)c(C(F)(F)F)c2)cc1C#Cc1cnc2cccnn12,percent Bodipy-positive cells,[2],98.891 ± 0.056%
C[C@@H]1C(=O)O[C@H]2C[C@@]34[C@H]5C[C@@H](C(C)(C)C)[C@]36[C@@H](OC(=O)[C@@H]6O)O[C@@]4(C(=O)O5)[C@]21O [Ginkgolide A],percent Bodipy-positive cells,,42.6 ± 18%
same,percent Bodipy-positive cells,[2],8.3 ± 1.9%
same,percent Bodipy-positive cells,[1],8.83 ± 1.7%
C[C@@H]1C(=O)O[C@H]2C[C@@]34[C@H]5C[C@@H](C(C)(C)C)[C@]36[C@@H](OC(=O)[C@@H]6O)O[C@@]4(C(=O)O5)[C@]21O [Ginkgolide a],percent Bodipy-positive cells,library stock concentration: 4.9 mM,7.93 ± 0.91%
same,percent Bodipy-positive cells,[1],33.7 ± 4.5%
CC1=C(C(=O)OC2CCCCC2)C(c2ccc([N+](=O)[O-])cc2)C2=C(CC(C)(C)CC2=O)N1 (stereo not given),percent Bodipy-positive cells,[2],79.2 ± 2%
CC[N+](C)(CC)CC(=O)Nc1c(C)cccc1C [N-Methyllidocaine iodide],percent Bodipy-positive cells,[1],8.93 ± 5.1%
O=C(O)c1cc(O)c2c(c1)[C@H]([C@H]1c3cc(C(=O)O)cc(O)c3C(=O)c3c(O[C@@H]4O[C@H](CO)[C@@H](O)[C@H](O)[C@H]4O)cccc31)c1cccc(O[C@@H]3O[C@H](CO)[C@@H](O)[C@H](O)[C@H]3O)c1C2=O [Sennoside a],percent Bodipy-positive cells,library stock concentration: 2.3 mM,16 ± 2%
same,percent Bodipy-positive cells,[1],36.9 ± 4%
